{"source": "patent US20210060157A1", "about": "(published 2021)", "target": "cynomolgus monkey C6 (cynomolgus monkey)", "assay": "Western blot of cynomolgus monkey serum, antibody 1:500", "note": "These are yes or no findings as the source states them, for the method shown. Some entries that bind do so weakly or less than the wild type.", "data": [{"binder": "rat anti-human C6 monoclonal antibody 7E5 (antibody, V domains shown, Whole antibody (150 kDa analyte in SPR) from a rat hybridoma; also called 7E5 mAb; supernatant #11) VH: EVQLVESDGGLVQPGGSLKLSCVASGFSFSDYYMAWVRQGPTKGLEWVATINYDGSSTYYRESVKGRFTISRDNAKRTLYLQMDSLRSEDTATYYCSRPSTEALFAYWGHGTLVTVSS VL: DVVLTQTPSTLSATIGQSVSISCRSSQSLLNDVGNTYLYWYLQRPGQSPQLLIYLVSDLGSGVPNRFSGSGSGTDFTLKISGVEAEDLGIYYCMQASHAPYTFGAGTNLELK", "values": [{"measurement": "binding", "result": "binds"}]}]}
